This series has as its system lung tumors in KPluc mice. Briefly: Me4FDG and FDG PET/CT imaging of lung nodules in KPluc mice. It is filed as in vivo, mouse. The note with it: for contrast-to-noise ratio (CNR): PET.

`CO[C@H]1O[C@H](CO)[C@@H]([18F])[C@H](O)[C@H]1O` [Me4FDG, methyl 4-deoxy-4-[18F] fluoro-alpha-D-glucopyranoside]: where the note is “lesion t2, KPluc mouse”, the “diameter of the smallest lesion with a CNR≥4” value was 1.0 mm and the “volume of the smallest lesion with a CNR≥4” value came out at 0.52 mm3. Where the note is “tumor t2 (printed 12), KPluc mouse”, the “contrast-to-noise ratio (CNR)” value amounted to 4.47. Also, the “contrast-to-noise ratio (CNR)” value (tumor t3, KPluc mouse) was 7.83.

The record behind these values is patent US20240197928A1, “SODIUM-DEPENDENT GLUCOSE TRANSPORTER 2 AS A DIAGNOSTIC AND THERAPEUTIC TARGET FOR PRE-MALIGNANT LESIONS” (THE REGENTS OF THE UNIVERSITY OF CALIFORNIA, priority 2019, published 2024).
